PubChem BioAssay AID1259307, Sanger Institute | 2017
This is an unselected part of 794 reagents. 15 of them (1.9%) count as active. 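Calls reflect lethality without any drug; synergy scores did not enter the calls.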 Unmarked entries are inactive. No viability above 1 is reported: the scale is capped. Not all columns of the deposit are shown. The record does not give: the amount of reagent, the time to read-out.

Test: 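Identify kinases needed for SW620 growth or enhancing BYL719, cetuximab or trametinib effects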 (primary screen)
System: SW620 colorectal cancer cells
Reagents: siRNA pool against human genes
Conditions: anchor drugs BYL719 at 1 µM, cetuximab at 5 µg/ml or trametinib at 10 nM, each beside a DMSO vehicle arm
Measurement: 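Per-well viability versus non-targeting control pool, replicate-averaged, robust z-score from controls; synergy scores for BYL719 1 µM, cetuximab 5 µg/ml, trametinib 10 nM against DMSO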
Reading the numbers: viability robust z-score, no drug and viability vs control, no drug: higher = more viable cells; synergy score with BYL719 and synergy score with cetuximab: higher = stronger synthetic lethality with the drug
Active means: 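Essential when the viability robust z-score without drug is under -3; synergy scores are ignored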
Meaning of the calls: active = essential (lethal alone); inactive = no change alone

no.	gene symbol	viability robust z-score, no drug	viability vs control, no drug	synergy score with BYL719	synergy score with cetuximab
1	UCK1 (GeneID 83549)	0.736	1	-0.0919	0
2	RPS6KA6 (GeneID 27330)	-0.0367	0.929	-0.0812	0.0307
3	CAMK2N1 (GeneID 55450)	-2.94	0.661	0.0336	-0.13
4	PTK7 (GeneID 5754)	-0.646	0.872	0.0198	-0.061
5	STRADB (GeneID 55437)	0.736	1	-0.0212	0
6	MKNK1 (GeneID 8569)	0.736	1	-0.00745	0.00868
7	PRKY (GeneID 5616)	-0.475	0.888	-0.0676	-0.0134
